# PMC7819943, “Rice protein-binding microarrays: a tool to detect cis-acting elements near promoter regions in rice”
# Sequences of proteins named here, by UniProt entry; tags and fusion partners are left off.
# UniProt Q0JBA9, entry or part of it: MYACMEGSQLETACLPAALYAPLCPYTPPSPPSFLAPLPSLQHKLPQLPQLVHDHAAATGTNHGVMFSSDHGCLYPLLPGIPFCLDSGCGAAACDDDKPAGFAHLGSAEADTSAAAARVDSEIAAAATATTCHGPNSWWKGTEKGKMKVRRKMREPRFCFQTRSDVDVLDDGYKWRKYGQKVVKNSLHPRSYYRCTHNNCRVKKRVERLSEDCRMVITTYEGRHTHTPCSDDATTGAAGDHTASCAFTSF
# This is one part of the list.
# Target: OsWRKY34 (Oryza sativa, UniProt Q0JBA9 1-250)
# Experiment: protein-binding microarray (RPBM); PBS, 2% BSA, 51.3 ng/ul salmon testes DNA, 50 uM zinc acetate, 200 nM TF, 25 C, 1 h; high values mean tight binding
# Conditions: protein: recombinant; tags: N-terminal polyhistidine and DsRed monomer fusion (pET32a); label: CyDye5-dUTP incorporated in the synthesized complementary strand; 3' TTTTT single-stranded linker to array surface; dsDNA, one strand shown
# How it was run: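 Binding signal is defined as the fluorescence intensity of each feature in arbitrary units, read on an Axon 4000B scanner. Transcription factors with N-terminal polyhistidine and DsRed fusions came from E. coli BL21-CodonPlus and were purified on Ni–NTA. They were incubated at 200 nM for 1 h at 25 °C on a custom Agilent array that had been made double-stranded with Cy5-dUTP, with 50 µM zinc acetate present, and the array was washed.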
row,Sequence,binding signal
1,CTGCGGGCCCGTCTGCACGGCCACCACCGAGAGGCGTCCACGGAGTCACCTAGTGCAG,8300 fluorescence intensity (a.u.)
2,TGTTGCAATCTGTTAAAACCAACTTGTATGTAATCCTTATCGGAGTCACCTAGTGCAG,8670 fluorescence intensity (a.u.)
3,TGGCGGCGAGGAGCGGCGGCGGCGGGGTTAGGATTCCGGCCGGAGTCACCTAGTGCAG,8720 fluorescence intensity (a.u.)
4,AAGTATTAGAGTTATATGAGCTTACCTGTACCCTTTTCTTCGGAGTCACCTAGTGCAG,9730 fluorescence intensity (a.u.)
5,GCGTATCTTCCCAATCTTCTCAATCTCCTATTCCTCAAACCGGAGTCACCTAGTGCAG,9320 fluorescence intensity (a.u.)
6,ACCGATCTCGCCCATTTCGGCGACAATCTCACCGGTATCTCGGAGTCACCTAGTGCAG,9290 fluorescence intensity (a.u.)
7,ATCGCCCTCTTTCTGTTTTGATCATATCAAACTTGGTTCTCGGAGTCACCTAGTGCAG,10300 fluorescence intensity (a.u.)
8,AGAACCGCACATATATATGAGAAATCTTTTGTTGGTTTTCCGGAGTCACCTAGTGCAG,9140 fluorescence intensity (a.u.)
9,TTTCATTTCACTCGCTGGCATTTCATCTCCTTGACCTATCCGGAGTCACCTAGTGCAG,9400 fluorescence intensity (a.u.)
10,CACCTAGCTCTCACTTGCCACCTCAACTTTCACCATTAACCGGAGTCACCTAGTGCAG,8440 fluorescence intensity (a.u.)
11,TCAGTTTGCCCTTGCCCACCGCTGCCGCCTCCGGCTCCGGCGGAGTCACCTAGTGCAG,9240 fluorescence intensity (a.u.)
12,ATGTGGGTCCTGCGCTGACTCTGCCGCCACGTCGGATAAACGGAGTCACCTAGTGCAG,9180 fluorescence intensity (a.u.)
13,CGCCTGTCAAATCCTAGTCAGGGAATCTGTCTTCCATCTACGGAGTCACCTAGTGCAG,9100 fluorescence intensity (a.u.)
14,GCTGTTTCTCTCCCTGCTGCTCTCTGCTCCACCATGTAAGCGGAGTCACCTAGTGCAG,14300 fluorescence intensity (a.u.)
15,ATTCCCTAACCGGGCTATTTTCTCTCTCGCTGAGGTTTGCCGGAGTCACCTAGTGCAG,8190 fluorescence intensity (a.u.)
16,GATCTGCTAGTTTGGAATCAATACTTTACCGTTGCATTGGCGGAGTCACCTAGTGCAG,8210 fluorescence intensity (a.u.)
17,CTTGATCCGTCCCTTTCCGCGAGACCCTTCTGCCGCCATGCGGAGTCACCTAGTGCAG,8320 fluorescence intensity (a.u.)
18,CGGCGGTTTTGATAGCGGTTTTGGTTGACGTGGCGCCTACCGGAGTCACCTAGTGCAG,8390 fluorescence intensity (a.u.)
19,GTACTTTCACTACTTTCCCGTTTCAATAAGGGCATGTACACGGAGTCACCTAGTGCAG,9870 fluorescence intensity (a.u.)
20,TGTGGTGTGCATGTGTATTTGTTGACGTCTCTTTCTCCCACGGAGTCACCTAGTGCAG,10400 fluorescence intensity (a.u.)
21,ATCTGATTCGTATCCCTTCTTTTGTTTTCTGGAGTACTTCCGGAGTCACCTAGTGCAG,13900 fluorescence intensity (a.u.)
22,TACTACGCGCCCGCCGCTTCTTGCCGCCTCCTCGTGCGCGCGGAGTCACCTAGTGCAG,8140 fluorescence intensity (a.u.)
23,TCCTCAACCTATCCAAGATAGTGCCACGGCTATTTTTCTTCGGAGTCACCTAGTGCAG,10200 fluorescence intensity (a.u.)
24,GCCTCCGATCCGTTTCATATAATAAGGTGTTTAACTTTTTCGGAGTCACCTAGTGCAG,9440 fluorescence intensity (a.u.)
25,CGTCCCGTCTCCACCCGCGCCTCTCCTCTCGTCCCGCGCCCGGAGTCACCTAGTGCAG,11900 fluorescence intensity (a.u.)
26,ATGAACTCGGCCTCGTTTATCTCTGACATGTGGGACCGGACGGAGTCACCTAGTGCAG,9190 fluorescence intensity (a.u.)
27,GTTATCTTGTGGTATCATGAAACATTTCTCTATACACCACCGGAGTCACCTAGTGCAG,8690 fluorescence intensity (a.u.)

# As a short view, part of the list above:
row,Sequence,binding signal
6,ACCGATCTCGCCCATTTCGGCGACAATCTCACCGGTATCTCGGAGTCACCTAGTGCAG,9290 fluorescence intensity (a.u.)
7,ATCGCCCTCTTTCTGTTTTGATCATATCAAACTTGGTTCTCGGAGTCACCTAGTGCAG,10300 fluorescence intensity (a.u.)
8,AGAACCGCACATATATATGAGAAATCTTTTGTTGGTTTTCCGGAGTCACCTAGTGCAG,9140 fluorescence intensity (a.u.)

# Next part:

row,Sequence,binding signal
1,TCTTGGGTCTTCTTCGTCCCTCGCTGCGGGTGGGTAGCGCCGGAGTCACCTAGTGCAG,10900 fluorescence intensity (a.u.)
2,GCTAGTGGTCCCACATGTCAGCTGTGAGCGTACTCGCCTTCGGAGTCACCTAGTGCAG,8960 fluorescence intensity (a.u.)
3,ATACACGCGCACACACACGTCACTACTTCACATGCAACACCGGAGTCACCTAGTGCAG,9840 fluorescence intensity (a.u.)
4,CGTTGACTTTTTTAAAAGTGTTTGACTGTTCGTCTTTTTTCGGAGTCACCTAGTGCAG,30500 fluorescence intensity (a.u.)
5,GCTTCGGCCCAACAACATTCCACTCGGCCCAACAACCACCCGGAGTCACCTAGTGCAG,9750 fluorescence intensity (a.u.)
6,TATTGTTCGTCACATCATCCTGTGTGTACCTATATAATATCGGAGTCACCTAGTGCAG,8660 fluorescence intensity (a.u.)
7,GGCGGGCGCGGTGGAGGCGGGGAGGAAGGGGAGCGGAGGTCGGAGTCACCTAGTGCAG,9390 fluorescence intensity (a.u.)
8,TGTAATGTGATATACCTTTTGAGCTGATCTTGTTGACTTACGGAGTCACCTAGTGCAG,10100 fluorescence intensity (a.u.)
9,TATATGTGCACACTGCAGTACTGCACTGTTGTTTTTTCAACGGAGTCACCTAGTGCAG,9580 fluorescence intensity (a.u.)
10,AAAGTGTTATGTTGATCGTTGTTGATGTTTAACCATGCTTCGGAGTCACCTAGTGCAG,8920 fluorescence intensity (a.u.)
11,TTACCATTGTTGCGATTTGGACCACCACGAATGATTTTTTCGGAGTCACCTAGTGCAG,9110 fluorescence intensity (a.u.)
12,TTTTTACATCTTAGCCCCTTGCCGCTTTTGCGAATTTTGCCGGAGTCACCTAGTGCAG,9810 fluorescence intensity (a.u.)
13,CTTTTACATTGTGGTTTATGTTTTCACTTCCTATCGAGGTCGGAGTCACCTAGTGCAG,8430 fluorescence intensity (a.u.)
14,ATCCTTGCTTGGTTTTGGGCTAAAAGTCCACTATTTCTTTCGGAGTCACCTAGTGCAG,10400 fluorescence intensity (a.u.)
15,TTGGAGTGTTTTATTCTTTCTTTTGTCGGATGTTGCAAATCGGAGTCACCTAGTGCAG,12300 fluorescence intensity (a.u.)
16,ACAGCTGCCACACCACACACACACACACACACAGCACGGCCGGAGTCACCTAGTGCAG,8270 fluorescence intensity (a.u.)
17,CTTGTGCGGATTGTTTCCCTATAACCGTGATGATAAATCACGGAGTCACCTAGTGCAG,8940 fluorescence intensity (a.u.)
18,TTGGTTTTCTTCTGCGTTCTCCATTGCCCTGTTCGATCAGCGGAGTCACCTAGTGCAG,9230 fluorescence intensity (a.u.)
19,ATTTTTTTTATGCCCAACTTTAACCGTTCATCCATTAAAACGGAGTCACCTAGTGCAG,8780 fluorescence intensity (a.u.)
20,ATCTTACTAGAGTGTCTTGCCAATCGTCCAGGTTTTACTACGGAGTCACCTAGTGCAG,9100 fluorescence intensity (a.u.)
21,AGCCATCCGGCCGCGGCCCGTCACAGGTAACTAGTCATTTCGGAGTCACCTAGTGCAG,9260 fluorescence intensity (a.u.)
22,GAAGGGTGGGAGGGGAAGGGGAGGACGAGCGGGCGGACGGCGGAGTCACCTAGTGCAG,11500 fluorescence intensity (a.u.)
23,GATAAGAAGATGAGAGGATGTGTGGTGTTTTATTGTGAAGCGGAGTCACCTAGTGCAG,8700 fluorescence intensity (a.u.)
24,CCCGAGGCGCCCCAATCTCCCTCGGTCTCTCCGCAGCTCCCGGAGTCACCTAGTGCAG,8510 fluorescence intensity (a.u.)
25,GGGGTGAACATTTCTTTCTTTCTGGTATTGTGGTTGAGGGCGGAGTCACCTAGTGCAG,19300 fluorescence intensity (a.u.)
26,CTTCTGCTGCTTCTCTCTCTCTCTCTGTGTCTAGTCTACCCGGAGTCACCTAGTGCAG,9420 fluorescence intensity (a.u.)
27,GGCAGAACCACTTTTCTTCTCAAGGCCTATTCTCATCTGTCGGAGTCACCTAGTGCAG,8030 fluorescence intensity (a.u.)
